Laboratory results: paper PMC10782741
Results are given in words; binding and its absence hold for the method and conditions named. In cells and extracts the contact can be indirect. Some entries that bind do so weakly or less than the wild type.

Sequences of proteins named here, by UniProt entry; tags and fusion partners are left off.
UniProt O60678: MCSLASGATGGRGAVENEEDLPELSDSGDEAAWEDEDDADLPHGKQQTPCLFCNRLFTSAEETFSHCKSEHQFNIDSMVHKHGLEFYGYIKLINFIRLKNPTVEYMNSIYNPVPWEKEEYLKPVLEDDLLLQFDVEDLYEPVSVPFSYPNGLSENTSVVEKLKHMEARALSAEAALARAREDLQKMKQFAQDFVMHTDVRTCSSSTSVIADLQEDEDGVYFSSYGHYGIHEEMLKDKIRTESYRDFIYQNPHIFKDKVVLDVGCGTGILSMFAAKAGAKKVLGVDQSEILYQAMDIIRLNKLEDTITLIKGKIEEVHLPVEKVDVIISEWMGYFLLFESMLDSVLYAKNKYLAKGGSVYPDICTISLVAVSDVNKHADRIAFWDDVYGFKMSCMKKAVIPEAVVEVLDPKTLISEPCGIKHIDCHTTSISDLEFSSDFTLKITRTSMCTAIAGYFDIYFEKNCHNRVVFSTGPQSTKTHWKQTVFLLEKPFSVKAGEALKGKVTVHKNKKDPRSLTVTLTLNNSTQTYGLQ
UniProt Q16665: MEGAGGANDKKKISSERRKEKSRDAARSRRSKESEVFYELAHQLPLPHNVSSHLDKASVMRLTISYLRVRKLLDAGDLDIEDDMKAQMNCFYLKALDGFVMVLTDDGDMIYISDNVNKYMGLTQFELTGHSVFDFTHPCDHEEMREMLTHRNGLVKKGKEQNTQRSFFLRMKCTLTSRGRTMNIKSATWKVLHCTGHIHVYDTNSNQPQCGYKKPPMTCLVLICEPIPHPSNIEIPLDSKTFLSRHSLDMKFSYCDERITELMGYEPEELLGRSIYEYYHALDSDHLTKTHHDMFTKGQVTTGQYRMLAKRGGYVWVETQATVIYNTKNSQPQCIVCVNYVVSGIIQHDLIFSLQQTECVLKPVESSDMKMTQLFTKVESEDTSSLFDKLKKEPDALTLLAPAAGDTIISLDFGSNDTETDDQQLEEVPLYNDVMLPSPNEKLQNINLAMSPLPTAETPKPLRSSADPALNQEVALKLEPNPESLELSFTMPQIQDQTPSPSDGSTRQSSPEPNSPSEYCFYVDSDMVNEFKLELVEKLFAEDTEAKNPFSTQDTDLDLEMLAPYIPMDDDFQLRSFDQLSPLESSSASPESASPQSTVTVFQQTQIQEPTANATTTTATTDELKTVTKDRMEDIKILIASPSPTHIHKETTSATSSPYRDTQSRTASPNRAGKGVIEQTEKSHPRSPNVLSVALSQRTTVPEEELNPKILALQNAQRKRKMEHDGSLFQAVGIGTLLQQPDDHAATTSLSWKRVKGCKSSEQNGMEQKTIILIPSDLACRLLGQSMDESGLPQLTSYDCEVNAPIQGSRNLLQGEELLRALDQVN

Molecular target: protein arginine methyltransferase 3 (human (endogenous in VSMCs)) (UniProt O60678)
Assay: co-IP; Pierce Co-IP Kit; anti-PRMT3 antibody covalently linked to amine-active resin; whole-cell lysate of VSMCs incubated with/without 10 mM β-GP, 4 °C overnight; IgG as negative control; western blot

binding: binds
Substance: hypoxia inducible factor 1 subunit alpha (from UniProt Q16665 1-826)
